Hit rate of the full screen: of about 300,000 compounds, about 5,400 (1.8%) were called active. The inconclusive results got no clear call from the source; some entries with a clear call stand among them for comparison. The call rests on the fitted dose curve; tested in HEK293 cells. Where the call is inconclusive, the potency comes from a doubtful curve fit.
Test: qHTS for inhibitors of binding or entry into cells for Marburg Virus
Conditions: Marburg virus pseudotyped entry inhibition, cell reporter; series mostly up to 37.8 µM
Potency means the concentration at half of the fitted maximal effect.

Row | SMILES | Potency
1 | Cc1cc(/C=C2/C(=O)NC(=O)N(Cc3ccco3)C2=O)c(C)n1-c1ccccc1 | inactive
2 | Cc1ccc(C(=O)C(C)OC(=O)c2ccc(Cl)nc2)cc1 (stereo not given) | inconclusive: 8.91 µM [activator, partial curve, poor fit]
3 | COc1ccc(NC(=O)C(c2ccccc2)N2CCN(c3ccccn3)CC2)cc1Cl (stereo not given) | inconclusive: 20 µM [inhibitor, single point]
4 | O=C(Nc1cccc2ncccc12)c1ccc([N+](=O)[O-])o1 | inconclusive: 20 µM [inhibitor, single point]
5 | CCN(CC)CC#CC(OC)(c1ccccc1)c1ccccc1 | inconclusive: 11.2 µM [inhibitor, partial curve, poor fit]
6 | O=C1Cc2ccccc2C(c2ccc(Cl)cc2)N1 (stereo not given) | inactive
7 | CCS(=O)(=O)N1Cc2ccccc2CC1C(=O)Nc1nnc(C2CC2)s1 (stereo not given) | inconclusive: 1.26 µM [inhibitor, single point]
8 | Cc1cc(C(=O)CN2C(=O)NC(c3ccccc3)(c3ccccc3)C2=O)c(C)n1Cc1ccccc1 | inconclusive: 10 µM [inhibitor, partial curve]
9 | CN1C(=O)C2(c3ccccc31)c1c(oc3ccccc3c1=O)C(=O)N2CCCO (stereo not given) | inactive
10 | CN(C)Cc1ccc(CNC(=O)COc2ccc3ccccc3c2)cc1 | inconclusive: 15.8 µM [inhibitor, single point]
11 | COc1ccc(C(=O)Nc2ccc([N+](=O)[O-])cn2)c(OC)c1 | inconclusive: 2 µM [inhibitor, full curve, poor fit]
12 | CC1(C(=O)NC2CCCCCCC2)CC1(Cl)Cl (stereo not given) | inactive
13 | COc1ccc2cnn(CCOc3cc(C)ccc3C(C)C)c(=O)c2c1OC | inconclusive: 32.6 µM [inhibitor, single point]
14 | COc1ccccc1C(=O)Nc1ccc(CN2CCCCC2)cc1 | inactive
15 | COc1ccc(S(=O)(=O)NNC(=O)c2cccs2)cc1 | inconclusive: 22.4 µM [activator, partial curve, poor fit]
16 | O=C(Cn1ncc(N2CCCC2)c(Br)c1=O)c1ccc(Cl)cc1 | inconclusive: 7.08 µM [inhibitor, partial curve, poor fit]
17 | O=C(N/N=C/C1C(c2ccccc2)C1(Cl)Cl)c1cccc(Br)c1 (stereo not given) | inactive
18 | Nc1nnc(SCCN2C(=O)c3ccccc3S2(=O)=O)s1 | inconclusive: 35.5 µM [activator, single point]
19 | C=CCOc1ccccc1CN1CCN(CCc2ccccc2)C(CCO)C1 (stereo not given) | inconclusive: 35.5 µM [inhibitor, single point]
20 | Cn1c(NC(=O)C[n+]2cc(-c3ccc(F)cc3)n3c2CCC3)cc(=O)n(C)c1=O | inactive
21 | C=CCn1c(SC(C)C(=O)NCc2ccc3c(c2)OCO3)nc2scc(-c3ccccc3)c2c1=O (stereo not given) | inactive
22 | Cc1ccc(NCc2cccn2-c2nnc(N3CCC(C(=O)NCc4ccc(F)cc4)CC3)s2)cc1 | inconclusive: 35.5 µM [inhibitor, single point]
23 | COc1ccc(CCNc2ncnc3c2oc2ccccc23)cc1OC | inconclusive: 7.3 µM [inhibitor, partial curve]

Row | SMILES | Potency
24 | COc1ccc(C(=O)C=Cc2cccs2)c(O)c1 | inconclusive: 31.6 µM [inhibitor, single point]
25 | O=C(CC12CC3CC(CC(Br)(C3)C1)C2)Nc1cccc(S(=O)(=O)NC2=NCCC2)c1 | inactive
26 | CC(NC(=O)COC(=O)c1ccccc1Nc1ccccc1)c1ccccc1 (stereo not given) | inactive
27 | Cc1ccn2c(Nc3ccccc3C)c(-c3ccccc3)nc2c1 | inactive
28 | Cc1ccc2nc(N3CCN(S(=O)(=O)c4ccc5c(c4)OCCO5)CC3)c(C#N)cc2c1 | inconclusive: 29.1 µM [inhibitor, single point]
29 | COc1ccc(CCN2CC(C(=O)NCCc3ccccn3)CCC2=O)cc1 (stereo not given) | inconclusive: 6.31 µM [activator, partial curve, poor fit]
30 | Cc1cc(C)nc(N(C#N)CC(=O)N(c2ccccc2)C(C)C)n1 | inactive
31 | Cc1c(Cl)cnc(NC(=O)CSc2nncs2)c1Cl | inconclusive: 14.1 µM [activator, single point]
32 | CC(C)(C)C1CCc2c(sc(NC(=O)c3ccncc3)c2C(N)=O)C1 (stereo not given) | inconclusive: 22.4 µM [inhibitor, single point]
33 | O=C(NNC(=S)Nc1ccccc1)NNC(=S)Nc1ccccc1 | inconclusive: 10 µM [activator, partial curve, poor fit]
34 | CC(C)CNC(=O)COC(=O)c1cccc(S(=O)(=O)NCC(F)(F)F)c1 | inconclusive: 5.62 µM [activator, single point]
35 | CCCn1c(-c2cccs2)nc2nc3ccccc3nc21 | inconclusive: 18.3 µM [activator, partial curve, poor fit]
36 | Cc1cc[n+]2c3c(cccc13)CCC2 | inactive
37 | COc1ccccc1-c1cc(C(=O)N/N=C/C=C/c2ccccc2[N+](=O)[O-])c2ccccc2n1 | inconclusive: 8.91 µM [inhibitor, partial curve, poor fit]
38 | O=C(COC(=O)[C@H](Cc1c[nH]c2ccccc12)NC(=O)c1cccs1)NCc1ccccc1 | inactive
39 | O=C(CN(C(=O)c1ccccc1Cl)C1CCCCC1)Nc1ccc(Cl)c([N+](=O)[O-])c1 | inconclusive: 29.1 µM [inhibitor, single point]
40 | C/C(=N\NC(=O)C1(C)CC1(Br)Br)c1ccc(NC(=O)c2ccc(C)o2)cc1 (stereo not given) | inconclusive: 11.2 µM [inhibitor, single point]
41 | Cc1ccc(S(=O)(=O)N2CCCCC2)cc1NC(=O)C1CC(=O)N(Cc2ccccc2)C1 (stereo not given) | inactive
42 | O=C(O)CCSc1ccc2ccccc2n1 | inactive
43 | CCOc1cc(CNc2ccc(Br)cc2)cc(Br)c1OCC(=O)NC(C)(C)C | inactive
44 | Cn1c(=O)n(C)c2cc(N3CCCCC3)c(NC(=O)c3c(F)cccc3F)cc21 | inconclusive: 35.5 µM [inhibitor, single point]
45 | O=C(O)/C(=C\c1ccc(-c2ccc(F)cc2)o1)c1ccccc1 | inconclusive: 10 µM [activator, partial curve, poor fit]

4 entries drawn at random from those above, as already listed:
Row | SMILES | Potency
40 | C/C(=N\NC(=O)C1(C)CC1(Br)Br)c1ccc(NC(=O)c2ccc(C)o2)cc1 (stereo not given) | inconclusive: 11.2 µM [inhibitor, single point]
36 | Cc1cc[n+]2c3c(cccc13)CCC2 | inactive
28 | Cc1ccc2nc(N3CCN(S(=O)(=O)c4ccc5c(c4)OCCO5)CC3)c(C#N)cc2c1 | inconclusive: 29.1 µM [inhibitor, single point]
45 | O=C(O)/C(=C\c1ccc(-c2ccc(F)cc2)o1)c1ccccc1 | inconclusive: 10 µM [activator, partial curve, poor fit]
